According to paper PMC8910062:
Results are given in words; binding and its absence hold for the method and conditions named. Binding seen in cells or lysates may run through a third protein. Here binding means that the protein was enriched with, or labelled near, the bait; the list need not be complete. One block for each molecule: values may come before it.

Amino acid sequences for entries named in this document (tags omitted). A change or cut given only in a name is not applied to a line headed by its entry. Chains listed by the source or under a name are the forms on record and can include a tag or linker. Residues count along the entry.
UniProt P13569: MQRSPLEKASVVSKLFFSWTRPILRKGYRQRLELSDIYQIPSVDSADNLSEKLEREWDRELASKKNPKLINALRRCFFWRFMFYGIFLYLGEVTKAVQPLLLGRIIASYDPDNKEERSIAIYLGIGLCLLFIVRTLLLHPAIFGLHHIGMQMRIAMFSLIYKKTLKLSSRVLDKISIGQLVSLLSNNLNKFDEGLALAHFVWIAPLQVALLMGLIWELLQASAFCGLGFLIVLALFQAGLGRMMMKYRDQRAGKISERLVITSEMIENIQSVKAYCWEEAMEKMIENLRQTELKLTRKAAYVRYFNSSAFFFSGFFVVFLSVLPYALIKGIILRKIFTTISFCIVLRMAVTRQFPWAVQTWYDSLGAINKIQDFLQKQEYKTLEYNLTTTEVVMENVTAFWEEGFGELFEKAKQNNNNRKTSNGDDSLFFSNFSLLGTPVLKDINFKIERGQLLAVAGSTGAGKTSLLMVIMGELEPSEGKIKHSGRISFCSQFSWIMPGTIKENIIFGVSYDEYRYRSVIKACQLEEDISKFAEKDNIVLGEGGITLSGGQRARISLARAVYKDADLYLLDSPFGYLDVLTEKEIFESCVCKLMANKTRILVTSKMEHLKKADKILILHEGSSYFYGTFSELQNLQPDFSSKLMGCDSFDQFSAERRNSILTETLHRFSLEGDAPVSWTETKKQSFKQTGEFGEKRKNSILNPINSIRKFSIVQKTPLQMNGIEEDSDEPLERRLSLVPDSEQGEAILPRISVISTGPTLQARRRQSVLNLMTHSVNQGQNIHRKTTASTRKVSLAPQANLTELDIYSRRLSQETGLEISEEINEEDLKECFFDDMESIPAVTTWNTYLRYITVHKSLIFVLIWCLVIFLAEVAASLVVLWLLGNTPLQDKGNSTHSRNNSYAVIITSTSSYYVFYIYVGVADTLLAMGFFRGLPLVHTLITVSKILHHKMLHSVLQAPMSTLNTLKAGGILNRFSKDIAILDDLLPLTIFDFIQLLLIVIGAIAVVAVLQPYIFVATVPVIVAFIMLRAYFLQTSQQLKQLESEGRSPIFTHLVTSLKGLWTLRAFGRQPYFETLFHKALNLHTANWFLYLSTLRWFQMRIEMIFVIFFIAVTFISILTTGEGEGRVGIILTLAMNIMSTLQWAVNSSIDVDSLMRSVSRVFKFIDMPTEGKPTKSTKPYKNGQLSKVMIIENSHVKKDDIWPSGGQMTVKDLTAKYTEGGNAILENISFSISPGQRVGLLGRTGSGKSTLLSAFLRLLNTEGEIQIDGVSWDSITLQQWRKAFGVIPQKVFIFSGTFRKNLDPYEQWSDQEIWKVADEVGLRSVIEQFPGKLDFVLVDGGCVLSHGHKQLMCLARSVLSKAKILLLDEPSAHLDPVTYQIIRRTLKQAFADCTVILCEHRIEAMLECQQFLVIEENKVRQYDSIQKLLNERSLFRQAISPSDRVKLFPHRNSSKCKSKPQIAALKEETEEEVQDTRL
FLAG-BirA*-∆F508-CFTR (P13569, form named): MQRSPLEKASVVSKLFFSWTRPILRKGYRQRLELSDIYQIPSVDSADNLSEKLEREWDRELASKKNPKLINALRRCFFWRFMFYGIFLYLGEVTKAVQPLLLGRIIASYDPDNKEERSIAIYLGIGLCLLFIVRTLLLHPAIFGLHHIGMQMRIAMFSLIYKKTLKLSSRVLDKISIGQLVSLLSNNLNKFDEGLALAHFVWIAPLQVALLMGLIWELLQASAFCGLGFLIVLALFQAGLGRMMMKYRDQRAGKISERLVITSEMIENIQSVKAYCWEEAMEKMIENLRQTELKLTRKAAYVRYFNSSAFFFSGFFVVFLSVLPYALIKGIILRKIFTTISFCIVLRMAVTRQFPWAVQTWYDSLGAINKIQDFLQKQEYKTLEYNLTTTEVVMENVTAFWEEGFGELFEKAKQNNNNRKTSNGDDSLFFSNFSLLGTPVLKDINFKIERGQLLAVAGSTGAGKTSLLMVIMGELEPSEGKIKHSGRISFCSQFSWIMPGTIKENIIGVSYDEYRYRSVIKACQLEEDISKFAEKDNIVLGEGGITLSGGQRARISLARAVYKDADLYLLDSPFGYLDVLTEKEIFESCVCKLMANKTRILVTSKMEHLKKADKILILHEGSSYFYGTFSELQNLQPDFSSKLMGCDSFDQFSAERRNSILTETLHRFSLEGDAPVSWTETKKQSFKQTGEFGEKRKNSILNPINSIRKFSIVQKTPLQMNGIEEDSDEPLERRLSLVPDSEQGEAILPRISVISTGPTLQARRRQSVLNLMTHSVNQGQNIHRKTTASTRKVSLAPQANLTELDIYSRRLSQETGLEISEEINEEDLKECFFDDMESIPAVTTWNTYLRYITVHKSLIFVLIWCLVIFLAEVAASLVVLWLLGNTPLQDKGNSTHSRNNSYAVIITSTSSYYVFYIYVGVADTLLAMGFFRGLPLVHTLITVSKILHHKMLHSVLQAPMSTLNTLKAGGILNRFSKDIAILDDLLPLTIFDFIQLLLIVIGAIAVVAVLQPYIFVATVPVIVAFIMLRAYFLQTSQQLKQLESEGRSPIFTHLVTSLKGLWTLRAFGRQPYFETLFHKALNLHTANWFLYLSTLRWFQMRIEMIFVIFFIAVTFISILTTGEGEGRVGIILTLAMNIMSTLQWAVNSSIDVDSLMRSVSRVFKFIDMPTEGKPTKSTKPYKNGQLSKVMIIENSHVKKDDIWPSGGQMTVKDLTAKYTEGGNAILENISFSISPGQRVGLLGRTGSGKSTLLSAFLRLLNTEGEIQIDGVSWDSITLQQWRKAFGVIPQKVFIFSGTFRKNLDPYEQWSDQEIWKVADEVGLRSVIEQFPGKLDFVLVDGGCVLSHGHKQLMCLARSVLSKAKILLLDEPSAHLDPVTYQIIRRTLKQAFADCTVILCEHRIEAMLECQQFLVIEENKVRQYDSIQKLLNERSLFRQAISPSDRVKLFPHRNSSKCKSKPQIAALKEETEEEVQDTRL
UniProt Q00610: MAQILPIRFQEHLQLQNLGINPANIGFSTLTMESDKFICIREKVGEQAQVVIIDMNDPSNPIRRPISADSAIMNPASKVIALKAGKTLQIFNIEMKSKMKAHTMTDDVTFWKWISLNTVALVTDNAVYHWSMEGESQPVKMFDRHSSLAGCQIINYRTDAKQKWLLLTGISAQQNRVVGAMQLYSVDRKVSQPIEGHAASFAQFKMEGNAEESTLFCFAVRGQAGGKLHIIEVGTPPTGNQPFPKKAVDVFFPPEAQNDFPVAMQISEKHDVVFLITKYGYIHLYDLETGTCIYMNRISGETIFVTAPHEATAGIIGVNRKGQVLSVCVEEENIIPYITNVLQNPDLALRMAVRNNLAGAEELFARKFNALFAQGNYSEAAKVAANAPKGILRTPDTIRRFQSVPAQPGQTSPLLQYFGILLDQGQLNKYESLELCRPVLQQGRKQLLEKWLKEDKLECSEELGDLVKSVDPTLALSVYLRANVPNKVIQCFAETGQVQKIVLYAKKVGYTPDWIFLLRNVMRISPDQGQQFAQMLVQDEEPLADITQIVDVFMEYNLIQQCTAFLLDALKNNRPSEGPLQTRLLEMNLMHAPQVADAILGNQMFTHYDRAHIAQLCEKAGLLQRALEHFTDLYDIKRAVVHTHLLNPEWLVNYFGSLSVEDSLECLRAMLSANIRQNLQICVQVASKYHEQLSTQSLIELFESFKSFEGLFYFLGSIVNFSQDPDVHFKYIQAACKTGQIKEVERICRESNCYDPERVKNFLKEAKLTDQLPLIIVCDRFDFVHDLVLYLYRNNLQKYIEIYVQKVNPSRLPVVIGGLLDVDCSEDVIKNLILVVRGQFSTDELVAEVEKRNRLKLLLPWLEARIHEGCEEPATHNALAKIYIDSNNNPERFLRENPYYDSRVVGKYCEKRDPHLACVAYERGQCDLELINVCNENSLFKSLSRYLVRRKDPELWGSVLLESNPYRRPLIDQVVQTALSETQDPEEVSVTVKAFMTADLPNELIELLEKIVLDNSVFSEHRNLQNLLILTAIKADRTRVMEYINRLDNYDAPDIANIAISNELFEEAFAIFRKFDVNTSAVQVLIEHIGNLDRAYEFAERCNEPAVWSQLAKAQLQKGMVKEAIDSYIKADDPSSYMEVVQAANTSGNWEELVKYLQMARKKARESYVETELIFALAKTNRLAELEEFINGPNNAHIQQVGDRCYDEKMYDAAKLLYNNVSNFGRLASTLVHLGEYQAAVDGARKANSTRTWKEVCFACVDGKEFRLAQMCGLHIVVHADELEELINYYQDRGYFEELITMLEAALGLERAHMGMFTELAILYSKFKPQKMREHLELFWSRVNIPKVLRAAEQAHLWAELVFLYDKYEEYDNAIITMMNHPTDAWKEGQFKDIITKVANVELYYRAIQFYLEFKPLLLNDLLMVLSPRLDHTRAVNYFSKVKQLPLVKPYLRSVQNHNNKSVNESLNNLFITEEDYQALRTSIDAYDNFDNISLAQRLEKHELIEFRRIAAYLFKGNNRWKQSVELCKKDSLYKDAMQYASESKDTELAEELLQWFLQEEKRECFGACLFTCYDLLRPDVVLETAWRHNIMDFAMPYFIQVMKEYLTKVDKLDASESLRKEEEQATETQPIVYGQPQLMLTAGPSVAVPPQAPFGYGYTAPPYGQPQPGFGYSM
UniProt O43852, residues 20-315: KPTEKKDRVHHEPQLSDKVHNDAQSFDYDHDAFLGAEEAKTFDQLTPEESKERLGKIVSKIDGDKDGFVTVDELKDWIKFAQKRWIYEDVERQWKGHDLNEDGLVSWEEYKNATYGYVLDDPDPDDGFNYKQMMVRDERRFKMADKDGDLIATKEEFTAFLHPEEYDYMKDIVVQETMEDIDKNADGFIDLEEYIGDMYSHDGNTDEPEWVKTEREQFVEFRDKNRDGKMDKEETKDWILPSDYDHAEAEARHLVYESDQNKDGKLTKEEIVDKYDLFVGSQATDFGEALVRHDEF
UniProt Q9UNE7: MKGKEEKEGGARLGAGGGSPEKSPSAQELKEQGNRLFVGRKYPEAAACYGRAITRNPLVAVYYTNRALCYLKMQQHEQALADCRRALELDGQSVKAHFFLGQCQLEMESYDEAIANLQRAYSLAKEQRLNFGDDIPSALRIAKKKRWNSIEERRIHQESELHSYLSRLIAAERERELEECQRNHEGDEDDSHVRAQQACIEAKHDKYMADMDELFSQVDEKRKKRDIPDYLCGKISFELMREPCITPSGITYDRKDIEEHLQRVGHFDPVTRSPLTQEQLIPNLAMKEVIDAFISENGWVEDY
UniProt O00161: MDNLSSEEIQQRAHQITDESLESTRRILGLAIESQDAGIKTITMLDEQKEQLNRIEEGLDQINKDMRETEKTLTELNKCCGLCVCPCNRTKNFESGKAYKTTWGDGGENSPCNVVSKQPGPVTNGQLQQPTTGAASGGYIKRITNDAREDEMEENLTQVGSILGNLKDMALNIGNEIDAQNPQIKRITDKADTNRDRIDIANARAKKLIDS
UniProt O95292: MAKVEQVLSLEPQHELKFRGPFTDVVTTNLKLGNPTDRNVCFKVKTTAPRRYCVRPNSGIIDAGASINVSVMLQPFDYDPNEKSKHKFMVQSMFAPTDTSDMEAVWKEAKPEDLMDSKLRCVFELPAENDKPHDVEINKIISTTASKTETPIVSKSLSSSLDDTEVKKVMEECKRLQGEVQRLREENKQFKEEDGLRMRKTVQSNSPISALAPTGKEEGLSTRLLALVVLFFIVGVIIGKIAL

Columns and labels:
[1] = molecular target: FLAG-BirA*-CFTR (wild type Cystic Fibrosis Transmembrane Conductance Regulator) (UniProt P13569); assay: proximity labelling; BioID in living HEK293 Flp-In T-REx cells: FLAG-BirA*-CFTR or FLAG-BirA*-∆F508-CFTR bait induced with 1 µg/mL tetracycline, 50 µM biotin; biotinylated preys captured on streptavidin beads and identified by mass spectrometry; SAINT against FlagBirA* alone, BFDR ≤ 0.01; WT in vehicle (0.1% DMSO); ∆F508 in vehicle or Orkambi (3 µM VX-809 + 1 µM VX-770), with or without MG132
FLAG-BirA*-∆F508-CFTR = FLAG-BirA*-∆F508-CFTR (UniProt P13569); assay: as above

Molecule: CLTC (from UniProt Q00610 1-1675)
binding [1]: binds
binding (FLAG-BirA*-∆F508-CFTR): binds

Molecule: Calumenin (CALU) (from UniProt O43852 20-315)
binding [1]: binds
binding (FLAG-BirA*-∆F508-CFTR): binds

Molecule: Lemur Tyrosine Kinase 2 (LMTK2) (from UniProt Q8IWU2 1-1503)
binding [1]: binds

Molecule: STIP1 Homology and U-Box Containing Protein 1 (STUB1) (from UniProt Q9UNE7 1-303)
binding [1]: binds
binding (FLAG-BirA*-∆F508-CFTR): binds

Molecule: Synaptosome Associated Protein 23 (SNAP23) (from UniProt O00161 1-211)
binding [1]: binds
binding (FLAG-BirA*-∆F508-CFTR): binds

B3: Solute Carrier protein family 30A9 (SLC30A9) (protein, UniProt Q6PML9 68-568)
chain: STNVQKEGQGSQTLRVEKVPSFETAEGIGTELKAPLKQEPLQVRVKAVLKKREYGSKYTQNNFITGVRAINEFCLKSSDLEQLRKIRRRSPHEDTESFTVYLRSDVEAKSLEVWGSPEALAREKKLRKEAEIEYRERLFRNQKILREYRDFLGNTKPRSRTASVFFKGPGKVVMVAICINGLNCFFKFLAWIYTGSASMFSEAIHSLSDTCNQGLLALGISKSVQTPDPSHPYGFSNMRYISSLISGVGIFMMGAGLSWYHGVMGLLHPQPIESLLWAYCILAGSLVSEGATLLVAVNELRRNARAKGMSFYKYVMESRDPSTNVILLEDTAAVLGVIIAATCMGLTSITGNPLYDSLGSLGVGTLLGMVSAFLIYTNTEALLGRSIQPEQVQRLTELLENDPSVRAIHDVKATDLGLGKVRFKAEVDFDGRVVTRSYLEKQDFDQMLQEIQEVKTPEELETFMLKHGENIIDTLGAEVDRLEKELKKRNPEVRHVDLEIL
binding (FLAG-BirA*-∆F508-CFTR): binds

B5: BAG5 (Bcl2-associated athanogene 5) (protein, UniProt Q9UL15 1-447)
chain: MDMGNQHPSISRLQEIQKEVKSVEQQVIGFSGLSDDKNYKKLERILTKQLFEIDSVDTEGKGDIQQARKRAAQETERLLKELEQNANHPHRIEIQNIFEEAQSLVREKIVPFYNGGNCVTDEFEEGIQDIILRLTHVKTGGKISLRKARYHTLTKICAVQEIIEDCMKKQPSLPLSEDAHPSVAKINFVMCEVNKARGVLIALLMGVNNNETCRHLSCVLSGLIADLDALDVCGRTEIRNYRREVVEDINKLLKYLDLEEEADTTKAFDLRQNHSILKIEKVLKRMREIKNELLQAQNPSELYLSSKTELQGLIGQLDEVSLEKNPCIREARRRAVIEVQTLITYIDLKEALEKRKLFACEEHPSHKAVWNVLGNLSEIQGEVLSFDGNRTDKNYIRLEELLTKQLLALDAVDPQGEEKCKAARKQAVRLAQNILSYLDLKSDEWEY
binding (FLAG-BirA*-∆F508-CFTR): binds

Results, then the molecule that gave them:

binding [1]: binds
binding (FLAG-BirA*-∆F508-CFTR): binds
Molecule: VAMP-Associated Protein B (VAPB) (from UniProt O95292 1-243)

binding [1]: binds
binding (FLAG-BirA*-∆F508-CFTR): binds
B1: syntaxin 6 (STX6) (protein, UniProt O43752 1-255)
chain: MSMEDPFFVVKGEVQKAVNTAQGLFQRWTELLQDPSTATREEIDWTTNELRNNLRSIEWDLEDLDETISIVEANPRKFNLDATELSIRKAFITSTRQVVRDMKDQMSTSSVQALAERKNRQALLGDSGSQNWSTGTTDKYGRLDRELQRANSHFIEEQQAQQQLIVEQQDEQLELVSGSIGVLKNMSQRIGGELEEQAVMLEDFSHELESTQSRLDNVMKKLAKVSHMTSDRRQWCAIAILFAVLLVVLILFLVL

binding (FLAG-BirA*-∆F508-CFTR): binds
B2: Syntaxin 5 (STX5) (protein, UniProt Q13190 1-355)
chain: MIPRKRYGSKNTDQGVYLGLSKTQVLSPATAGSSSSDIAPLPPPVTLVPPPPDTMSCRDRTQEFLSACKSLQTRQNGIQTNKPALRAVRQRSEFTLMAKRIGKDLSNTFAKLEKLTILAKRKSLFDDKAVEIEELTYIIKQDINSLNKQIAQLQDFVRAKGSQSGRHLQTHSNTIVVSLQSKLASMSNDFKSVLEVRTENLKQQRSRREQFSRAPVSALPLAPNHLGGGAVVLGAESHASKDVAIDMMDSRTSQQLQLIDEQDSYIQSRADTMQNIESTIVELGSIFQQLAHMVKEQEETIQRIDENVLGAQLDVEAAHSEILKYFQSVTSNRWLMVKIFLILIVFFIIFVVFLA

binding (FLAG-BirA*-∆F508-CFTR): binds
B4: VANGL1 (protein, UniProt Q8TAA9 1-524)
chain: MDTESTYSGYSYYSSHSKKSHRQGERTRERHKSPRNKDGRGSEKSVTIQPPTGEPLLGNDSTRTEEVQDDNWGETTTAITGTSEHSISQEDIARISKDMEDSVGLDCKRYLGLTVASFLGLLVFLTPIAFILLPPILWRDELEPCGTICEGLFISMAFKLLILLIGTWALFFRKRRADMPRVFVFRALLLVLIFLFVVSYWLFYGVRILDSRDRNYQGIVQYAVSLVDALLFIHYLAIVLLELRQLQPMFTLQVVRSTDGESRFYSLGHLSIQRAALVVLENYYKDFTIYNPNLLTASKFRAAKHMAGLKVYNVDGPSNNATGQSRAMIAAAARRRDSSHNELYYEEAEHERRVKKRKARLVVAVEEAFIHIQRLQAEEQQKAPGEVMDPREAAQAIFPSMARALQKYLRITRQQNYHSMESILQHLAFCITNGMTPKAFLERYLSAGPTLQYDKDRWLSTQWRLVSDEAVTNGLRDGIVFVLKCLDFSLVVNVKKIPFIILSEEFIDPKSHKFVLRLQSETSV

binding (FLAG-BirA*-∆F508-CFTR): binds
B6: Syntaxin-12 (STX12) (protein, UniProt Q86Y82 1-276)
chain: MSYGPLDMYRNPGPSGPQLRDFSSIIQTCSGNIQRISQATAQIKNLMSQLGTKQDSSKLQENLQQLQHSTNQLAKETNELLKELGSLPLPLSTSEQRQQRLQKERLMNDFSAALNNFQAVQRRVSEKEKESIARARAGSRLSAEERQREEQLVSFDSHEEWNQMQSQEDEVAITEQDLELIKERETAIRQLEADILDVNQIFKDLAMMIHDQGDLIDSIEANVESSEVHVERATEQLQRAAYYQKKSRKKMCILVLVLSVIILILGLIIWLVYKTK

binding [1]: binds
B7: Ubiquitin Specific Peptidase 19 (USP19) (protein, UniProt O94966 1-1318)
chain: MSGGASATGPRRGPPGLEDTTSKKKQKDRANQESKDGDPRKETGSRYVAQAGLEPLASGDPSASASHAAGITGSRHRTRLFFPSSSGSASTPQEEQTKEGACEDPHDLLATPTPELLLDWRQSAEEVIVKLRVGVGPLQLEDVDAAFTDTDCVVRFAGGQQWGGVFYAEIKSSCAKVQTRKGSLLHLTLPKKVPMLTWPSLLVEADEQLCIPPLNSQTCLLGSEENLAPLAGEKAVPPGNDPVSPAMVRSRNPGKDDCAKEEMAVAADAATLVDEPESMVNLAFVKNDSYEKGPDSVVVHVYVKEICRDTSRVLFREQDFTLIFQTRDGNFLRLHPGCGPHTTFRWQVKLRNLIEPEQCTFCFTASRIDICLRKRQSQRWGGLEAPAARVGGAKVAVPTGPTPLDSTPPGGAPHPLTGQEEARAVEKDKSKARSEDTGLDSVATRTPMEHVTPKPETHLASPKPTCMVPPMPHSPVSGDSVEEEEEEEKKVCLPGFTGLVNLGNTCFMNSVIQSLSNTRELRDFFHDRSFEAEINYNNPLGTGGRLAIGFAVLLRALWKGTHHAFQPSKLKAIVASKASQFTGYAQHDAQEFMAFLLDGLHEDLNRIQNKPYTETVDSDGRPDEVVAEEAWQRHKMRNDSFIVDLFQGQYKSKLVCPVCAKVSITFDPFLYLPVPLPQKQKVLPVFYFAREPHSKPIKFLVSVSKENSTASEVLDSLSQSVHVKPENLRLAEVIKNRFHRVFLPSHSLDTVSPSDTLLCFELLSSELAKERVVVLEVQQRPQVPSVPISKCAACQRKQQSEDEKLKRCTRCYRVGYCNQLCQKTHWPDHKGLCRPENIGYPFLVSVPASRLTYARLAQLLEGYARYSVSVFQPPFQPGRMALESQSPGCTTLLSTGSLEAGDSERDPIQPPELQLVTPMAEGDTGLPRVWAAPDRGPVPSTSGISSEMLASGPIEVGSLPAGERVSRPEAAVPGYQHPSEAMNAHTPQFFIYKIDSSNREQRLEDKGDTPLELGDDCSLALVWRNNERLQEFVLVASKELECAEDPGSAGEAARAGHFTLDQCLNLFTRPEVLAPEEAWYCPQCKQHREASKQLLLWRLPNVLIVQLKRFSFRSFIWRDKINDLVEFPVRNLDLSKFCIGQKEEQLPSYDLYAVINHYGGMIGGHYTACARLPNDRSSQRSDVGWRLFDDSTVTTVDESQVVTRYAYVLFYRRRNSPVERPPRAGHSEHHPDLGPAAEAAASQASRIWQELEAEEEPVPEGSGPLGPWGPQDWVGPLPRGPTTPDEGCLRYFVLGTVAALVALVLNVFYPLVSQSRWR

binding (FLAG-BirA*-∆F508-CFTR): binds
B8: Syntaxin 18 (STX18) (protein, UniProt Q9P2W9 1-335)
chain: MAVDITLLFRASVKTVKTRNKALGVAVGGGVDGSRDELFRRSPRPKGDFSSRAREVISHIGKLRDFLLEHRKDYINAYSHTMSEYGRMTDTERDQIDQDAQIFMRTCSEAIQQLRTEAHKEIHSQQVKEHRTAVLDFIEDYLKRVCKLYSEQRAIRVKRVVDKKRLSKLEPEPNTKTRESTSSEKVSQSPSKDSEENPATEERPEKILAETQPELGTWGDGKGEDELSPEEIQMFEQENQRLIGEMNSLFDEVRQIEGRVVEISRLQEIFTEKVLQQEAEIDSIHQLVVGATENIKEGNEDIREAIKNNAGFRVWILFFLVMCSFSLLFLDWYDS
